This assay concerns the target His-tagged human ISCU (human) (UniProt Q9H1K1). The assay is described as follows: pull-down; His-tagged human ISCU over-expressed in E. coli BL21(DE3) or CL100(DE3) (ΔiscS), alone or co-expressed with ISCS or ISCS+ISD11; single Ni-NTA affinity step; co-purified proteins confirmed by mass spectrometry.

By UniProt entry, the sequences of proteins in these tests, tags left out. Residues count along the entry.
UniProt Q9H1K1, residues 35-167: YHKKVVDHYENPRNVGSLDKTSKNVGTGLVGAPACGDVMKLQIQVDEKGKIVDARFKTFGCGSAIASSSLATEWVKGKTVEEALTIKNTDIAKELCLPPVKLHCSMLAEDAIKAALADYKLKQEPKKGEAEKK
UniProt P0A6B7: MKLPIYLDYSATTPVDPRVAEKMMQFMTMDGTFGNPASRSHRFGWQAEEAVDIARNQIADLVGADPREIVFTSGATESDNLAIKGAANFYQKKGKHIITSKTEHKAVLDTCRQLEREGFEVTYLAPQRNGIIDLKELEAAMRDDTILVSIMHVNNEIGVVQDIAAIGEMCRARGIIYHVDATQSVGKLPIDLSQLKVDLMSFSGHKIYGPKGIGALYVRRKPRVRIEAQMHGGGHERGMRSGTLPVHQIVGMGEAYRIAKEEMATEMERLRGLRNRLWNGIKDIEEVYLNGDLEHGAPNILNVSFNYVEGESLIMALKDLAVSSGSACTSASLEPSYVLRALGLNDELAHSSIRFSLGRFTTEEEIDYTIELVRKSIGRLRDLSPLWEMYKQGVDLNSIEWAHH

No constants are given. Whether binding was seen depends on the method and setting. Binding seen in cells or lysates may run through a third protein. Some entries that bind do so weakly or less than the wild type.

For the substance “endogenous IscS of E. coli (from UniProt P0A6B7 1-404)”, the binding result is “binds”.
